Test results reported in US20090286738A1, “Gene Regulation” (ST. GEORGE'S ENTERPRISES LIMITED, priority 2005, published 2009).
These are yes or no findings as the source states them, for the method shown. Binding seen in cells or lysates may run through a third protein. Some entries that bind do so weakly or less than the wild type.

The chains behind the UniProt entries cited, without tags or fusion partners.
UniProt P28357: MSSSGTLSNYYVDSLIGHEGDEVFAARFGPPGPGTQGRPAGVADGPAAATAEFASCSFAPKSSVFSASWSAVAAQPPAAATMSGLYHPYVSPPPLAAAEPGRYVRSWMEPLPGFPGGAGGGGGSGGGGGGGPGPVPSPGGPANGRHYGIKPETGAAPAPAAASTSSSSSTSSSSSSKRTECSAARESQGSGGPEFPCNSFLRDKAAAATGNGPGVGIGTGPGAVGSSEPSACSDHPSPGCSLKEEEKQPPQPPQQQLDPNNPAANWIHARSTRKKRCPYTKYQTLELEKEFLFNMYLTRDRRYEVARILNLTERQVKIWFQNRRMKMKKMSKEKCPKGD
UniProt P06537: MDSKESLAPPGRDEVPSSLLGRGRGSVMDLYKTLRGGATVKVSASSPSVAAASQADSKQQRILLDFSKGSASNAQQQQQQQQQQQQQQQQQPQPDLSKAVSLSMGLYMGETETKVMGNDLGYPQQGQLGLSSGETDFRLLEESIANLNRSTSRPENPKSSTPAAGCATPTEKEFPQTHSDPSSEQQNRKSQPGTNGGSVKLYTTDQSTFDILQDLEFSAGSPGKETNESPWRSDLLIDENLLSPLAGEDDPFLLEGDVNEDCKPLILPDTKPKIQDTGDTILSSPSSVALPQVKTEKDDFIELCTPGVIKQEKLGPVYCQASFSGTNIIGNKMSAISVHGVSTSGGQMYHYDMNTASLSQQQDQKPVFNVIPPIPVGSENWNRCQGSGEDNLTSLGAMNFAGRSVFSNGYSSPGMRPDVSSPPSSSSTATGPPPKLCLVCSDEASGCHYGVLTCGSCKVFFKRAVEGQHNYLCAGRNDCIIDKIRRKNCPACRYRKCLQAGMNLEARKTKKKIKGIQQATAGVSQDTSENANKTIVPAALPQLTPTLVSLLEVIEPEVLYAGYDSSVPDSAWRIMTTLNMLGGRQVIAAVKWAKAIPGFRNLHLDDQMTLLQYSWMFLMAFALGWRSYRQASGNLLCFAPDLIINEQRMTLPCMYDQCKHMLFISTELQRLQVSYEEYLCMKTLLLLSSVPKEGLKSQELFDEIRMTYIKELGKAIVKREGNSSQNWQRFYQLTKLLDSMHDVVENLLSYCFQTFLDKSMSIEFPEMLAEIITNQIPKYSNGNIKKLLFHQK

Experiments:
[1] = biological target: T1, PBX proteins of murine B16 melanoma cells (mouse (murine B16 melanoma cells)) (UniProt P41778); assay: co-immunoprecipitation with anti-PBX antibody from B16 cell lysate, precipitates probed for HOXD9, GR and PBX
T1 sequence (looked up): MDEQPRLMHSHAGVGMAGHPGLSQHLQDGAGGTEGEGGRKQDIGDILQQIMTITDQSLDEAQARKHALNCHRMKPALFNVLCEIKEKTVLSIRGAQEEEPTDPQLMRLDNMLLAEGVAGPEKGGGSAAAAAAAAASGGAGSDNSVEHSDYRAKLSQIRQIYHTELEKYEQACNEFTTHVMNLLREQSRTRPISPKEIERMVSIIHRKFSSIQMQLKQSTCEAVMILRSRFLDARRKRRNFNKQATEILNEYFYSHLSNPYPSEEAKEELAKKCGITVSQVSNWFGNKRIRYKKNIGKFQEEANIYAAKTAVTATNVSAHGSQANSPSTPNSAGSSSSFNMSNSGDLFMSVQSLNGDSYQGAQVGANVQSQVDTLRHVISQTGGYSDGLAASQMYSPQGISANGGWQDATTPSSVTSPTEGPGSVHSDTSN

[2] = biological target: T1, PBX proteins of murine B16 melanoma cells (mouse (murine B16 melanoma cells)); assay: co-immunoprecipitation with anti-PBX antibody from B16 cell lysate, Western blot

binding [1]	binding [2]	Substance
binds		HOXD9 (from UniProt P28357 1-339)
binds	binds	glucocorticoid receptor (GR) (from UniProt P06537 1-792)
